Source: PubChem BioAssay AID743121 (NCATS, 2013)

Purpose: 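Partners whose loss is lethal together with topoisomerase I blockade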 (primary screen)
System: MDA-MB-231 cells, a human breast cancer line
Reagents: single siRNA against human genes, 20 nM siRNA (0.8 pmol per well)
Time to read-out: 120 h (drug added 48 h after transfection, read 72 h later)
Treatment: camptothecin 20 nM (about EC30) for 72 h; vehicle 0.1% DMSO in parallel plates
Detection: 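Cell viability by ATP luminescence (CellTiter-Glo) as % of non-targeting siRNA wells, and the log2 ratio of viability without drug over viability with camptothecin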
Direction: log2 vehicle/camptothecin viability: higher = stronger sensitisation to camptothecin; viability with camptothecin and viability without drug: higher = more viable cells
Call rule: 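Active genes have an RSA gene-level p-value below 0.001, computed from the ratios of their separate siRNAs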
Here is one part, drawn at random, of about 26,000 deposited reagents. Over the whole deposit, 167 (0.63%) got an active call. 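Calls are per gene from RSA p-values that are not deposited; an individual active-marked siRNA can sensitise only weakly.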 Reagents against one gene are numbered here.

| Target gene | reagent | log2 vehicle/camptothecin viability | viability with camptothecin (% of control) | viability without drug (% of control) | outcome |
| --- | --- | --- | --- | --- | --- |
| SLC12A3 | 1 | 0.000907 | 66.6 | 66.6 | inactive |
| SLC12A3 | 2 | 0.0441 | 61 | 62.9 | inactive |
| SLC12A3 | 3 | 0.196 | 47.2 | 54 | inactive |
| SLC12A3 | 4 | -0.546 | 120 | 82.3 | inactive |
| TULP1 | 1 | -0.171 | 96.8 | 86 | inactive |
| TULP1 | 2 | -0.257 | 101 | 84.5 | inactive |
| TULP1 | 3 | 0.0618 | 78.6 | 82.1 | inactive |
| TULP1 | 4 | -0.123 | 85 | 78 | inactive |
| SMAD3 | 1 | 0.0432 | 90.2 | 92.9 | inactive |
| SMAD3 | 2 | -0.207 | 56.3 | 48.8 | inactive |
| SMAD3 | 3 | 0.0676 | 92.5 | 96.9 | inactive |
| SMAD3 | 4 | 0.318 | 62.8 | 78.2 | inactive |
| ABCC12 | 1 | 0.245 | 83.4 | 98.9 | inactive |
| ABCC12 | 2 | -0.0695 | 87.6 | 83.5 | inactive |
| ABCC12 | 3 | -0.148 | 76.4 | 69 | inactive |
| WDHD1 | 1 | 0.0802 | 66.9 | 70.7 | inactive |
| WDHD1 | 2 | -0.154 | 69.6 | 62.5 | inactive |
| WDHD1 | 3 | 0.823 | 13.6 | 24 | inactive |
| WDHD1 | 4 | -0.531 | 34.1 | 23.6 | inactive |
| CYP7B1 | 1 | 0.188 | 58.8 | 67 | inactive |
| CYP7B1 | 2 | -0.101 | 102 | 95.1 | inactive |
| CYP7B1 | 3 | 0.0677 | 62.2 | 65.1 | inactive |
| CYP7B1 | 4 | 0.369 | 67.1 | 86.6 | inactive |
| RAET1E | 1 | -0.388 | 74 | 56.5 | inactive |
| RAET1E | 2 | 0.133 | 75.6 | 82.9 | inactive |
| RAET1E | 3 | -0.293 | 92.7 | 75.7 | inactive |
| RAET1E | 4 | -0.571 | 92.2 | 62.1 | inactive |
| NSG2 | 1 | 0.0748 | 85.1 | 89.7 | inactive |
| NSG2 | 2 | 0.562 | 51.4 | 75.9 | inactive |
| NSG2 | 3 | -0.392 | 71.4 | 54.4 | inactive |
| NSG2 | 4 | -0.453 | 93.6 | 68.4 | inactive |

Continued, starting with the last 7 of the part before.
| Target gene | reagent | log2 vehicle/camptothecin viability | viability with camptothecin (% of control) | viability without drug (% of control) | outcome |
| --- | --- | --- | --- | --- | --- |
| RAET1E | 2 | 0.133 | 75.6 | 82.9 | inactive |
| RAET1E | 3 | -0.293 | 92.7 | 75.7 | inactive |
| RAET1E | 4 | -0.571 | 92.2 | 62.1 | inactive |
| NSG2 | 1 | 0.0748 | 85.1 | 89.7 | inactive |
| NSG2 | 2 | 0.562 | 51.4 | 75.9 | inactive |
| NSG2 | 3 | -0.392 | 71.4 | 54.4 | inactive |
| NSG2 | 4 | -0.453 | 93.6 | 68.4 | inactive |
| CCL3L1 | 1 | 0.0789 | 42.7 | 45.1 | inactive |
| CCL3L1 | 2 | -0.147 | 98.8 | 89.2 | inactive |
| PIK3C2A | 1 | -0.19 | 116 | 102 | inactive |
| PIK3C2A | 2 | -0.0385 | 99.7 | 97.1 | inactive |
| PIK3C2A | 3 | -0.0532 | 75.5 | 72.7 | inactive |
| PIK3C2A | 4 | 0.149 | 43.1 | 47.7 | inactive |
| ADH7 | 1 | -0.117 | 84.8 | 78.1 | inactive |
| ADH7 | 2 | -0.192 | 103 | 90.1 | inactive |
| ADH7 | 3 | -0.0913 | 89.5 | 84.1 | inactive |
| ADH7 | 4 | 0.344 | 55.1 | 69.9 | inactive |
| UPRT | 1 | -0.207 | 113 | 97.6 | inactive |
| UPRT | 2 | -0.0502 | 78.5 | 75.9 | inactive |
| UPRT | 3 | -0.163 | 85.9 | 76.7 | inactive |
| UPRT | 4 | 0.267 | 67.8 | 81.7 | inactive |
| TAPBP | 1 | -0.0789 | 123 | 116 | inactive |
| TAPBP | 2 | -0.129 | 95.8 | 87.6 | inactive |
| TAPBP | 3 | -1.43 | 53.9 | 20 | inactive |
| TAPBP | 4 | -0.29 | 84.5 | 69.1 | inactive |
| TAPBP | 5 | -0.0526 | 38.6 | 37.2 | inactive |
| TAPBP | 6 | 0.0297 | 95.1 | 97.1 | inactive |
| TAPBP | 7 | -0.438 | 58.6 | 43.3 | inactive |
| TAPBP | 8 | 1.4 | 4.21 | 11.1 | inactive |
| ZRANB3 | 1 | -0.218 | 96.8 | 83.3 | inactive |
| ZRANB3 | 2 | 0.112 | 34.3 | 37.1 | inactive |
| ZRANB3 | 3 | -0.288 | 45.2 | 37 | inactive |
| ZRANB3 | 4 | -0.142 | 95.3 | 86.4 | inactive |
| IP6K3 | 1 | -0.499 | 64.6 | 45.7 | inactive |
| IP6K3 | 2 | -0.306 | 82.5 | 66.7 | inactive |
| IP6K3 | 3 | -0.326 | 78.7 | 62.7 | inactive |
| IP6K3 | 4 | -0.457 | 97.3 | 70.9 | inactive |
| GPER1 | 1 | 0.791 | 47 | 81.4 | inactive |
| GPER1 | 2 | -0.359 | 63.3 | 49.3 | inactive |
| GPER1 | 3 | -0.184 | 101 | 89 | inactive |
| GPER1 | 4 | -0.324 | 31.9 | 25.5 | inactive |
| KCNJ8 | 1 | -0.287 | 36.9 | 30.2 | inactive |
| KCNJ8 | 2 | 0.00795 | 100 | 101 | inactive |
| KCNJ8 | 3 | -0.157 | 52.7 | 47.2 | inactive |
| KCNJ8 | 4 | -0.239 | 78.6 | 66.5 | inactive |
